PubChem BioAssay AID1224828 | NIAID, 2016

Purpose: 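Knock-downs that increase or decrease LPS-induced p65 nuclear translocation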 (primary screen)
Cells: mouse RAW264.7 G9 macrophage reporter cells (GFP-p65, Tnf promoter-mCherry)
Knock-down reagent: siRNA pool against mouse genes, 100 nM
Duration: 2 days siRNA transfection, then 40 min LPS before fixation
Conditions: LPS (Salmonella minnesota R595) at 10 ng/ml
Measured: 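Microscopy ratio of nuclear to perinuclear-ring GFP-p65 signal, scaled to the plate median; gene score is the average of two replicate robust z-scores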
Direction: p65 translocation robust z-score: higher = more nuclear NF-kappaB p65 after LPS than the plate median; nuclear/cytoplasmic p65 ratio: higher = more nuclear NF-kappaB p65
Hit rule: 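Called active when z exceeds 3.3 or falls under -1.56 (median of Tlr4 controls), giving activity score of at least 50; no calls for control wells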
Meaning of the calls: active = hit (p65 shift raised or lowered); inactive = no clear change
This is one part, drawn at random, of about 17,000 deposited reagents. Of all reagents, 762 (4.5%) are marked active. 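Active calls include both raised and lowered p65 entry, mostly lowered; wells with fewer than 50 cells lack a z-score.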 The raw values are shown without normalisation. Entries without a mark were called inactive.

gene | p65 translocation robust z-score | nuclear/cytoplasmic p65 ratio, rep 1 | nuclear/cytoplasmic p65 ratio, rep 2 | low cell count flag
Rrp1b (ribosomal RNA processing 1B) | – | 1.31 | 1.18 | fewer than 50 cells per well; well left out of scoring
Slc30a4 | – | 1.67 | 1.12 | fewer than 50 cells per well; well left out of scoring
Xpo4 (exportin 4) | 0.01 | 1.38 | 1.28 | enough cells to score
Adgrv1 (adhesion G protein-coupled receptor V1) | 1.67 | 1.68 | 1.54 | enough cells to score
Tars1 (threonyl-tRNA synthetase 1) | – | 1.67 | 1.35 | fewer than 50 cells per well; well left out of scoring
Clcnkb (chloride channel, voltage-sensitive Kb) | 0.16 | 1.65 | 1.77 | enough cells to score
Slc35b1 | -0.17 | 1.37 | 1.1 | enough cells to score
Gstt3 (glutathione S-transferase, theta 3) | 0.81 | 1.86 | 1.57 | enough cells to score
Slc14a1 | -0.08 | 1.5 | 1.61 | enough cells to score
Abcb1b (ATP-binding cassette, sub-family B member 1B) | 0.14 | 1.61 | 1.73 | enough cells to score
Or52b3 (olfactory receptor family 52 subfamily B member 3) | 0.92 | 1.53 | 1.38 | enough cells to score
Stc2 (stanniocalcin 2) | -0.74 | 1.37 | 1.11 | enough cells to score
Dvl2 (dishevelled segment polarity protein 2) | 1.28 | 1.71 | 1.49 | enough cells to score
Ror2 (receptor tyrosine kinase-like orphan receptor 2) | 0.92 | 1.8 | 1.52 | enough cells to score
Pa2g4 (proliferation-associated 2G4) | -1.25 | 1.4 | 1.24 | enough cells to score
Pou2f3 (POU domain, class 2, transcription factor 3) | -0.58 | 1.47 | 1.29 | enough cells to score
Ermap (erythroblast membrane-associated protein) | 1.05 | 1.76 | 1.6 | enough cells to score
Zscan2 (zinc finger and SCAN domain containing 2) | – | 1.15 | 1.07 | fewer than 50 cells per well; well left out of scoring
Col2a1 (collagen, type II, alpha 1) | 0.58 | 1.55 | 1.45 | enough cells to score
Pla1a (phospholipase A1 member A) | 0.32 | 1.49 | 1.19 | enough cells to score
Tsga10 (testis specific 10) | 1.2 | 1.55 | 1.36 | enough cells to score
Antxrl (anthrax toxin receptor-like) | -0.79 | 1.23 | 1.39 | enough cells to score
Lactb (lactamase, beta) | -1.18 | 1.38 | 1.27 | enough cells to score
Cpne5 (copine V) | 0.81 | 1.64 | 1.44 | enough cells to score
Rxra (retinoid X receptor alpha) | -1.17 | 1.37 | 1.34 | enough cells to score
Rhob (ras homolog family member B) | 0.79 | 1.81 | 1.45 | enough cells to score
Gpr135 (G protein-coupled receptor 135) | 0.52 | 1.56 | 1.39 | enough cells to score
F11r (F11 receptor) | -1.28 | 1.26 | 1.23 | enough cells to score
Actr10 (ARP10 actin-related protein 10) | – | 1.47 | 1.53 | fewer than 50 cells per well; well left out of scoring
Mark4 (MAP/microtubule affinity regulating kinase 4) | 0.45 | 1.72 | 1.46 | enough cells to score
Sfxn5 (sideroflexin 5) | – | 1.11 | 1.33 | fewer than 50 cells per well; well left out of scoring
Prdx6b (peroxiredoxin 6B) | 0.13 | 1.3 | 1.3 | enough cells to score
Yod1 (YOD1 deubiquitinase) | 1.58 | 1.58 | 1.82 | enough cells to score
9030203C11Rik (RIKEN cDNA 9030203C11 gene) | – | 1.14 | 1.32 | fewer than 50 cells per well; well left out of scoring
Scg3 (secretogranin III) | -0.39 | 1.43 | 1.49 | enough cells to score
Steap1 (six transmembrane epithelial antigen of the prostate 1) | 0.17 | 1.47 | 1.23 | enough cells to score
Msl3 (MSL complex subunit 3) | -2.06 (active) | 1.5 | 1.24 | enough cells to score
Hcrtr2 (hypocretin (orexin) receptor 2) | -0.77 | 1.28 | 1.32 | enough cells to score
Klf17 (Kruppel-like transcription factor 17) | 0.73 | 1.53 | 1.32 | enough cells to score
Rpf2 (ribosome production factor 2 homolog) | -1.93 (active) | 1.18 | 1.25 | enough cells to score
Hpcal1 (hippocalcin-like 1) | -1.39 | 1.29 | 1.16 | enough cells to score
Tns2 (tensin 2) | 0.2 | 1.61 | 1.48 | enough cells to score
Mocs1 (molybdenum cofactor synthesis 1) | -1.07 | 1.24 | 1.26 | enough cells to score
Tubg2 (tubulin, gamma 2) | -0.27 | 1.47 | 1.47 | enough cells to score
B3galnt2 | 0.88 | 1.59 | 1.47 | enough cells to score
Cldn7 (claudin 7) | -0.31 | 1.46 | 1.82 | enough cells to score
Gbgt1 (globoside alpha-1,3-N-acetylgalactosaminyltransferase 1) | -0.5 | 1.49 | 1.42 | enough cells to score
Sell (selectin, lymphocyte) | 1.05 | 1.59 | 1.81 | enough cells to score
Etv5 (ets variant 5) | -0.7 | 1.41 | 1.25 | enough cells to score
Bace1 (beta-site APP cleaving enzyme 1) | 0.3 | 1.62 | 1.89 | enough cells to score
Ap2a2 (adaptor-related protein complex 2, alpha 2 subunit) | -0.57 | 1.52 | 1.59 | enough cells to score
Pikfyve (phosphoinositide kinase, FYVE type zinc finger containing) | 0 | 1.46 | 1.45 | enough cells to score
Wbp1 (WW domain binding protein 1) | – | 1.46 | 1.19 | fewer than 50 cells per well; well left out of scoring
E2f7 (E2F transcription factor 7) | 0.15 | 1.59 | 1.28 | enough cells to score
Cd1d1 (CD1d1 antigen) | -0.47 | 1.46 | 1.32 | enough cells to score
Or5t5 (olfactory receptor family 5 subfamily T member 5) | -1.32 | 1.49 | 1.36 | enough cells to score
Met (met proto-oncogene, receptor tyrosine kinase) | -0.33 | 1.61 | 1.35 | enough cells to score
Ypel3 (yippee like 3) | -0.12 | 1.45 | 1.51 | enough cells to score
H2-Q7 (histocompatibility 2, Q region locus 7) | -0.64 | 1.35 | 1.3 | enough cells to score
